# Measured values as given in the supplement of paper PMC8728848.
# Some of the results follow.
# How the values were obtained:
# Assay in all cases: glycan array binding signal (z-score within array); higher = stronger binding
# Conditions in all cases: glycan notation: IUPAC condensed, linker removed
# [1] = biological target: Fuc(a1-3)[Gal3S(b1-4)]GlcNAc6S
# Summary of the method: (§1)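 Negative Z-scores can be read as non-binding. The Z-score is calculated within each array and then averaged across arrays of one protein sequence at different concentrations or buffers and across linkers. Arrays, 3228 in all, were curated from the Consortium for Functional Glycomics database and kept only where the protein sequence was available.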
# [2] = biological target: Fuc(a1-3)[GalNAc(b1-4)]GlcNAc
# Summary of the method: as §1
# [3] = biological target: Fuc(a1-3)[GalNAc(b1-4)]GlcNAc6S
# Summary of the method: as §1
# Fuc(a1-4)GlcNAc = biological target: Fuc(a1-4)GlcNAc
# Summary of the method: as §1
# Fuc(b1-3)GlcNAc = biological target: Fuc(b1-3)GlcNAc
# Summary of the method: as §1
# Gal(a1-2)Gal = biological target: Gal(a1-2)Gal
# Summary of the method: as §1
# Gal(a1-3)Gal = biological target: Gal(a1-3)Gal
# Summary of the method: as §1
# Gal(a1-3)Gal(b1-3)GlcNAc = biological target: Gal(a1-3)Gal(b1-3)GlcNAc
# Summary of the method: as §1
# [4] = biological target: Gal(a1-3)Gal(b1-3)GlcNAc(b1-2)Man
# Summary of the method: as §1
# [5] = biological target: Gal(a1-3)Gal(b1-3)GlcNAc(b1-2)Man(a1-3)[Gal(a1-3)Gal(b1-3)GlcNAc(b1-2)Man(a1-6)]Man(b1-4)GlcNAc(b1-4)GlcNAc
# Summary of the method: as §1
# [6] = biological target: Gal(a1-3)Gal(b1-3)GlcNAc(b1-3)GalNAc
# Summary of the method: as §1
# [7] = biological target: Gal(a1-3)Gal(b1-3)GlcNAc(b1-6)GalNAc
# Summary of the method: as §1
# [8] = biological target: Gal(a1-3)Gal(b1-3)[Fuc(a1-4)]GlcNAc(b1-2)Man(a1-3)[Gal(a1-3)Gal(b1-3)[Fuc(a1-4)]GlcNAc(b1-2)Man(a1-6)]Man(b1-4)GlcNAc(b1-4)GlcNAc
# Summary of the method: as §1
# Gal(a1-3)Gal(b1-4)Glc = biological target: Gal(a1-3)Gal(b1-4)Glc
# Summary of the method: as §1
# Gal(a1-3)Gal(b1-4)GlcNAc = biological target: Gal(a1-3)Gal(b1-4)GlcNAc
# Summary of the method: as §1
# [9] = biological target: Gal(a1-3)Gal(b1-4)GlcNAc(b1-2)Man
# Summary of the method: as §1
# [10] = biological target: Gal(a1-3)Gal(b1-4)GlcNAc(b1-2)Man(a1-3)[Gal(a1-3)Gal(b1-4)GlcNAc(b1-2)Man(a1-6)]Man(b1-4)GlcNAc(b1-4)GlcNAc
# Summary of the method: as §1
# [11] = biological target: Gal(a1-3)Gal(b1-4)GlcNAc(b1-3)GalNAc
# Summary of the method: as §1
# [12] = biological target: Gal(a1-3)Gal(b1-4)GlcNAc(b1-6)GalNAc
# Summary of the method: as §1
# [13] = biological target: Gal(a1-3)Gal(b1-4)[Fuc(a1-3)]GlcNAc
# Summary of the method: as §1
# [14] = biological target: Gal(a1-3)Gal(b1-4)[Fuc(a1-3)]GlcNAc(b1-2)Man(a1-3)[Gal(a1-3)Gal(b1-4)[Fuc(a1-3)]GlcNAc(b1-2)Man(a1-6)]Man(b1-4)GlcNAc(b1-4)GlcNAc
# Summary of the method: as §1
# Gal(a1-3)GalNAc = biological target: Gal(a1-3)GalNAc
# Summary of the method: as §1
# [15] = biological target: Gal(a1-3)[Gal(a1-4)]Gal(b1-4)GlcNAc
# Summary of the method: as §1
# [16] = biological target: Gal(a1-4)Gal(b1-3)GlcNAc(b1-2)Man(a1-3)[Gal(a1-4)Gal(b1-3)GlcNAc(b1-2)Man(a1-6)]Man(b1-4)GlcNAc(b1-4)GlcNAc
# Summary of the method: as §1
# Gal(a1-4)Gal(b1-4)Glc = biological target: Gal(a1-4)Gal(b1-4)Glc
# Summary of the method: as §1
# Gal(a1-4)Gal(b1-4)GlcNAc = biological target: Gal(a1-4)Gal(b1-4)GlcNAc
# Summary of the method: as §1
# [17] = biological target: Gal(a1-4)Gal(b1-4)GlcNAc(b1-2)Man(a1-3)[Gal(a1-4)Gal(b1-4)GlcNAc(b1-2)Man(a1-6)]Man(b1-4)GlcNAc(b1-4)GlcNAc
# Summary of the method: as §1
# [18] = biological target: Gal(a1-4)Gal(b1-4)GlcNAc(b1-3)Gal(b1-4)Glc
# Summary of the method: as §1
# Gal(a1-4)GlcNAc = biological target: Gal(a1-4)GlcNAc
# Summary of the method: as §1
# Gal(a1-6)Glc = biological target: Gal(a1-6)Glc
# Summary of the method: as §1
# Gal(b1-2)Gal = biological target: Gal(b1-2)Gal
# Summary of the method: as §1
# Gal(b1-3)Gal = biological target: Gal(b1-3)Gal
# Summary of the method: as §1
# Gal(b1-3)Gal(b1-4)GlcNAc = biological target: Gal(b1-3)Gal(b1-4)GlcNAc
# Summary of the method: as §1
# Gal(b1-3)GalNAc = biological target: Gal(b1-3)GalNAc
# Summary of the method: as §1
# [19] = biological target: Gal(b1-3)GalNAc(a1-3)[Fuc(a1-2)]Gal(b1-4)Glc
# Summary of the method: as §1
# [20] = biological target: Gal(b1-3)GalNAc(a1-3)[Fuc(a1-2)]Gal(b1-4)GlcNAc
# Summary of the method: as §1
# Gal(b1-3)GalNAc(b1-3)Gal = biological target: Gal(b1-3)GalNAc(b1-3)Gal
# Summary of the method: as §1
binder,measurement,setting,value
GS13814A-bth-462-26-462 (Bacteroides thetaiotaomicron) (protein) DDRDNLMVNDQIGLLHSTYTETEIFRGMDTPYQLFVIKSGKGKQETEVSISVDETVLQSYNTDNGTSIQLLPSDCYTILQPALRLNDSDYRKAFDIKWNADRLSDLLSTGKEYGLPIQMSVVQNFISADDERLKTIIVPTIKEPYLQMDVPGMSPVTDFMPTFGDLNERELFVKIRTNYSNDEDISFQIEVDPQLVIDYNTAHGTAYKMLPESSFTVDNKGVILTGMKETFIKIKYHKKGLIPEEGTYLFGDYVLPLRITSVSKYGISPDAASKLYTVKFQPDPIDKKGWSVIDFNNCCTQDGGWYLNMGWGVESLIDNNPGTQWLCRWDVKEPLPYYFVFDMGKEYTLFRFGFANPVAPAAHVWAGTSKAGYVEASIDNENWVKLKDWTSPKIGEPNVNMDVPATQARYIRFVITDTYPTYDGLRVSLGEVYAWGM,glycan array binding signal (z-score),[1],-0.631
same,glycan array binding signal (z-score),[2],2.12
same,glycan array binding signal (z-score),[3],-0.857
same,glycan array binding signal (z-score),Fuc(a1-4)GlcNAc,14.3
same,glycan array binding signal (z-score),Fuc(b1-3)GlcNAc,1.35
same,glycan array binding signal (z-score),Gal(a1-2)Gal,-0.831
same,glycan array binding signal (z-score),Gal(a1-3)Gal,0.164
same,glycan array binding signal (z-score),Gal(a1-3)Gal(b1-3)GlcNAc,-0.542
same,glycan array binding signal (z-score),[4],-1.19
same,glycan array binding signal (z-score),[5],1.04
same,glycan array binding signal (z-score),[6],-0.741
same,glycan array binding signal (z-score),[7],-0.571
same,glycan array binding signal (z-score),[8],-0.262
same,glycan array binding signal (z-score),Gal(a1-3)Gal(b1-4)Glc,0.383
same,glycan array binding signal (z-score),Gal(a1-3)Gal(b1-4)GlcNAc,0.048
same,glycan array binding signal (z-score),[9],-0.41
same,glycan array binding signal (z-score),[10],-0.267
same,glycan array binding signal (z-score),[11],-0.778
same,glycan array binding signal (z-score),[12],-1.23
same,glycan array binding signal (z-score),[13],-0.925
same,glycan array binding signal (z-score),[14],-0.07
same,glycan array binding signal (z-score),Gal(a1-3)GalNAc,0.128
same,glycan array binding signal (z-score),[15],0.196
same,glycan array binding signal (z-score),[16],-0.82
same,glycan array binding signal (z-score),Gal(a1-4)Gal(b1-4)Glc,0.959
same,glycan array binding signal (z-score),Gal(a1-4)Gal(b1-4)GlcNAc,1.46
same,glycan array binding signal (z-score),[17],1.02
same,glycan array binding signal (z-score),[18],0.92
same,glycan array binding signal (z-score),Gal(a1-4)GlcNAc,-0.321
same,glycan array binding signal (z-score),Gal(a1-6)Glc,-0.354
same,glycan array binding signal (z-score),Gal(b1-2)Gal,0.083
same,glycan array binding signal (z-score),Gal(b1-3)Gal,0.012
same,glycan array binding signal (z-score),Gal(b1-3)Gal(b1-4)GlcNAc,-0.412
same,glycan array binding signal (z-score),Gal(b1-3)GalNAc,-0.247
same,glycan array binding signal (z-score),[19],-0.25
same,glycan array binding signal (z-score),[20],-0.498
same,glycan array binding signal (z-score),Gal(b1-3)GalNAc(b1-3)Gal,0.61

# No new results follow: an excerpt of the list.
binder,measurement,setting,value
GS13814A-bth-462-26-462 (Bacteroides thetaiotaomicron) (protein) DDRDNLMVNDQIGLLHSTYTETEIFRGMDTPYQLFVIKSGKGKQETEVSISVDETVLQSYNTDNGTSIQLLPSDCYTILQPALRLNDSDYRKAFDIKWNADRLSDLLSTGKEYGLPIQMSVVQNFISADDERLKTIIVPTIKEPYLQMDVPGMSPVTDFMPTFGDLNERELFVKIRTNYSNDEDISFQIEVDPQLVIDYNTAHGTAYKMLPESSFTVDNKGVILTGMKETFIKIKYHKKGLIPEEGTYLFGDYVLPLRITSVSKYGISPDAASKLYTVKFQPDPIDKKGWSVIDFNNCCTQDGGWYLNMGWGVESLIDNNPGTQWLCRWDVKEPLPYYFVFDMGKEYTLFRFGFANPVAPAAHVWAGTSKAGYVEASIDNENWVKLKDWTSPKIGEPNVNMDVPATQARYIRFVITDTYPTYDGLRVSLGEVYAWGM,glycan array binding signal (z-score),Gal(a1-4)Gal(b1-4)GlcNAc,1.46
same,glycan array binding signal (z-score),[17],1.02
same,glycan array binding signal (z-score),[18],0.92
